Our source for the cell number change and AC50 values is PubChem BioAssay AID2685 (National Center for Advancing Translational Sciences (NCATS), 2010).

Some of the results follow. The main result of the screen is listed elsewhere. These columns were measured beside it and carry no call. Compounds called inactive in the main read-out are mostly missing here. Potencies come from curve fits of mixed quality, noted in brackets.

The nature of this assay: qHTS Assay for Lipid Storage Modulators in Drosophila S3 Cells.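 On cell number change: cells counted by Cell Tracker Red CMTPX staining in the red channel.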 To be noted: BODIPY lipid droplet fluorescence, 18-24 h; for cell number change: measured here: cell count max response, cells fed with added oleic acid. The procedure, abridged: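 Drosophila S3 cells got compounds at several concentrations plus oleic acid (400 uM solution). Laser-scanning cytometry with 488 nm excitation read lipid droplets at 500-530 nm and cells at 575-640 nm. Percent activity was relative to 20 uM Triacsin C.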

[1] abbreviates: measured here: cell number channel AC50, cells fed with added oleic acid.
[2] abbreviates: measured here: lipid fluorescence (Fed channel) AC50, cells fed with added oleic acid.

On to `Cc1cc(Nc2ccccc2)n(CCOC(=O)COc2ccccc2)n1`, for which the cell number change is -25%. Further, under setting [1], the AC50 is 0.0058 µM [falling, full curve, poor fit]. Also, under setting [2], the AC50 is 0.00461 µM [rising, full curve, poor fit].
Regarding `COC(=O)c1c(C(=O)OC)c2n(c1C)CCS2`, the cell number change is -10.8%.
For the compound `CCOc1ccc(N(CC(=O)NC2CCCC2)C(=O)CCC(=O)Nc2ccccn2)cc1`, the cell number change is -7.27%. Moreover, the AC50 under setting [2] is 0.0092 µM [rising, full curve, poor fit].
On to `CN(C)c1nn(C(=O)Nc2cccc(C(F)(F)F)c2)cc1-c1ccccc1`, for which the cell number change worked out at 16.1%. Also, the AC50 under setting [2] was 20.6 µM [rising, single point].
For `O=C(OCCN1CCN(c2ncc(C(F)(F)F)cc2Cl)CC1)c1ccc(Cl)cc1`, the cell number change amounted to 40.1%. In addition, under setting [2], the AC50 is 6.51 µM [falling, single point].
Turning to `CCN(CC)CCn1c2ccccc2c2n[nH]c(=S)nc21`, the cell number change is -21%.
In the case of `CC(=O)O/N=C(\N)c1cnn2c(C(F)(F)F)cc(C(F)(F)F)nc12`, the cell number change is -48%. Moreover, the AC50 under setting [1] is 0.651 µM [falling, full curve]. Under setting [2], the AC50 was 1.84 µM [falling, single point].
Consider `OCCOCCOc1ccccc1OCCOCCO`, for which the cell number change was -16.7%. Besides, the AC50 under setting [2] is 29.1 µM [falling, single point].
`Cc1cccc(-n2c(SCC(=O)N3CCN(c4ccccn4)CC3)nnc2N2CCOCC2)c1`: the cell number change was found to be 4.54%. Moreover, the AC50 under setting [2] is 4.11 µM [falling, full curve, poor fit].
For the compound `O=C(OCC(=O)N1CCOCC1)c1ccc2ccccc2c1`, the cell number change was 38.3%. Also, the AC50 under setting [1] was 16.4 µM [rising, single point]. For the same compound, the AC50 under setting [2] is 14.6 µM [rising, partial curve].
In the case of `CC(OC(=O)c1ccccc1Oc1ccccc1)C(=O)NC1CC1` (stereo unspecified), the cell number change turned out to be 0.543%. Under setting [1], the AC50 was 0.092 µM [rising, partial curve, poor fit]. Under setting [2], the half-maximal activity concentration (AC50) was 0.461 µM [rising, partial curve, poor fit].
`CCN1CCN(c2cc(C)c3cc(NC(=O)c4cccs4)ccc3n2)CC1`: the cell number change is 19.3%. Besides, the AC50 under setting [2] is 3.66 µM [rising, single point].
For the compound `COc1cccc(OCC(O)CN2CCN(c3ncccn3)CC2)c1` (stereo unspecified), the cell number change came out at 5.17%. Moreover, the AC50 under setting [2] is 16.4 µM [falling, single point].
Turning to `CCCCN(CC(=O)Nc1c(C)cccc1CC)C(=O)SCC`, the cell number change is 12.7%. Also, the AC50 under setting [2] was 2.31 µM [rising, full curve].
With `Cc1noc(C)c1COC(=O)CCCc1c[nH]c2ccccc12`, the cell number change came to 13%.
Regarding `Cc1cc(C(=O)NCC(=O)OCC(=O)Nc2ccc(OC(F)F)cc2)ccc1[N+](=O)[O-]`, the cell number change was -8.16%. In addition, under setting [1], the AC50 was 0.731 µM [rising, full curve]. In addition, under setting [2], the AC50 was 0.731 µM [falling, full curve, poor fit].
Turning to `COc1ccc(C2NC(=S)NC3=C2CCCC3=C2SCCS2)cc1` (stereo unspecified), the cell number change is -95.8%. Under setting [1], the AC50 is 3.66 µM [falling, full curve].
Regarding `Cc1ccc(C)c(N(C)C(=O)CCS(=O)(=O)c2cccc3nonc23)c1`, the cell number change was -0.417%.
Turning to `Cc1ccc(C)c2nc3sc(C(=O)N4CCCc5ccccc54)c(N)c3cc12`, the cell number change came out at 10.6%. The AC50 under setting [2] was 18.4 µM [falling, single point].
As for `CCOC(=O)C1=NNC2(c3ccc(C)cc3)C(=O)N(c3ccccc3)C(=O)C12` (stereo unspecified), the cell number change is -36.3%. Under setting [1], the AC50 was 0.58 µM [falling, full curve, poor fit]. The AC50 under setting [2] is 0.259 µM [falling, full curve, poor fit].
As to `COC(=O)NNC(=S)Nc1ccc(Br)cc1`, the cell number change is -30.8%. Besides, under setting [1], the concentration at half-maximal activity (AC50) was 8.2 µM [falling, partial curve, poor fit]. Besides, the AC50 under setting [2] is 29.1 µM [falling, single point].
With `COc1ccc(C(=O)N/N=C(\C)CC(=O)NC2CCCCC2)c(OC)c1`, the cell number change is 5.49%. In addition, under setting [2], the AC50 was 6.51 µM [rising, single point].
Turning to `Cc1n[nH]c(C)c1S(=O)(=O)N(CC(=O)Nc1ccc2c(c1)OCCO2)c1ccc(C(C)C)cc1`, under setting [2], the AC50 was 29.1 µM [falling, single point].
With `CNS(=O)(=O)c1cc(S(=O)(=O)NC)c2cccc3c2c1NC3=O`, the cell number change is -9.07%. Moreover, the AC50 under setting [1] was 0.0517 µM [falling, full curve, poor fit]. Further, under setting [2], the AC50 was 29.1 µM [rising, single point].
As to `CN1CCN(NC(=O)c2cc(-c3ccc(Cl)s3)nc3ccccc23)CC1`, the cell number change amounted to 28.8%. Further, under setting [2], the AC50 was 0.58 µM [rising, single point].
`CCOC(=O)c1nnc(-c2ccccc2)[nH]c1=O`: the cell number change was -27%. Under setting [2], the AC50 is 0.0058 µM [falling, full curve, poor fit].
Regarding `Cc1cccc(Oc2nc(-c3ccccc3)cc(C)c2S(C)(=O)=O)c1C`, the cell number change came out at 40.1%. Moreover, the AC50 under setting [1] was 4.11 µM [rising, partial curve, poor fit]. Under setting [2], the AC50 was 16.4 µM [rising, partial curve].
On to `O=S(=O)(c1ccc(F)c(F)c1F)N1CCN(C(=S)NC2CC3CCC2C3)CC1` (stereo unspecified), for which the cell number change stood at 10.2%.
Regarding `COC(=O)CSc1nc2ccc(C)cc2[nH]1`, the cell number change was found to be 0.896%. In addition, the half-maximal activity concentration (AC50) under setting [1] was 0.58 µM [falling, single point].
On to `Cc1ccc(NC(=O)Cc2nnc(SCC(=O)Nc3ccc(N4CCOCC4)cc3)n2C)cc1`, for which the cell number change came out at 33.3%. The AC50 under setting [1] was 0.58 µM [rising, full curve, poor fit].
With `COc1cc2[nH]cc(C(=O)NCCc3ccccc3)c(=O)c2cc1OC`, the cell number change is -31.8%. Besides, under setting [1], the AC50 is 11.6 µM [falling, partial curve].
As to `Cc1ccc(Cl)cc1NC(=S)NN`, the cell number change was 18.1%. Further, the AC50 under setting [2] was 25.9 µM [rising, single point].
`COCCCNc1c2c3c(cccc3[nH]c1=O)C(=O)c1ccccc1-2`: the cell number change was -95.9%. In addition, the AC50 under setting [1] was 20.6 µM [falling, single point]. Also, under setting [2], the AC50 is 13 µM [falling, partial curve].
As to `Cc1cc(Cl)ccc1OCC(=O)NC1CCCC1`, the cell number change was determined as 92.7%. Moreover, the AC50 under setting [1] was 16.4 µM [rising, partial curve]. Under setting [2], the AC50 is 23.1 µM [rising, partial curve].
As for `O=C(Cc1coc2ccc3ccccc3c12)NCc1ccccc1`, the cell number change is -10.3%.
As to `CCCCN(C)C(=O)c1coc(=O)c2ccccc12`, the cell number change worked out at 37.9%. Besides, under setting [1], the AC50 was 29.1 µM [rising, single point].
For `CCCc1cc(=O)[nH]c(SCC(=O)NC(=O)OCC)n1`, the cell number change is -12.2%. Besides, the AC50 under setting [1] is 0.651 µM [falling, single point]. Moreover, the AC50 under setting [2] was 0.58 µM [falling, partial curve, poor fit].
On to `COc1ccc(CCNC(=O)Cc2cc(OC)c(OC)cc2Br)cc1OC`, for which, under setting [2], the AC50 is 5.8 µM [rising, full curve].
Regarding `CCOC(=O)c1oc2ccccc2c1CN1CC(C)OC(C)C1` (stereo unspecified), the cell number change was 41%. Besides, under setting [1], the AC50 is 16.4 µM [rising, single point].
With `COc1ccc(-c2nn3c(-c4ccc(F)cc4)nnc3s2)cc1`, the cell number change is -4.38%. Besides, the AC50 under setting [2] is 0.184 µM [rising, full curve, poor fit].
For the compound `COc1ccc(CCNC(=O)CCc2cn(C)c3ccccc23)c(OC)c1OC`, the cell number change worked out at 54.2%.
In the case of `O=c1cc(CSc2nnc3ccccn23)c2c(ccc3ccccc32)o1`, the cell number change is -35.6%. Moreover, the AC50 under setting [1] was 7.31 µM [falling, partial curve, poor fit]. Under setting [2], the AC50 was 5.17 µM [rising, partial curve, poor fit].
On to `CN(CCC1CCOCC1)C(=O)C1CCC(=O)N(CCc2ccccc2)C1` (stereo unspecified), for which the cell number change worked out at 2.35%. In addition, the AC50 under setting [2] is 9.2 µM [rising, partial curve, poor fit].
`CCOC(=O)C1CCCN(c2c(NCCc3ccc(C)cc3)c(=O)c2=O)C1` (stereo unspecified): the cell number change turned out to be 14.5%. In addition, the AC50 under setting [1] is 4.11 µM [rising, single point].
As to `CC(C)CC(C(=O)Oc1ccc2c3c(c(=O)oc2c1)CCC3)N1C(=O)c2ccccc2C1=O` (stereo unspecified), the cell number change is -16.7%. Moreover, under setting [2], the AC50 was 23.1 µM [falling, partial curve].
As to `O=c1cc(CN2CCN(c3ccc(O)cc3)CC2)nc2scc(-c3ccccc3)n12`, the cell number change stood at 34.7%. For the same compound, the AC50 under setting [1] was 5.8 µM [rising, full curve, poor fit]. The AC50 under setting [2] was 29.1 µM [rising, single point].
For the compound `CC(=O)c1cc(C#N)c(N2CCOCC2)nc1C`, the cell number change is -3.62%. Further, the AC50 under setting [1] is 6.51 µM [falling, single point].
For `Cc1cc(S(=O)(=O)N2CCCC(N(C)CCc3ccccn3)C2)c(C)s1` (stereo unspecified), the cell number change is -3.18%.
Consider `O=C(Nc1ccc2c(c1)OCO2)N1CCN(c2ccccc2Cl)CC1`, for which the AC50 reads like this: under setting [1], 0.58 µM [rising, partial curve, poor fit]; under setting [2], 0.146 µM [rising, full curve].
In the case of `CC1CN(C(=O)c2ccc3c(c2)OCO3)CC(C)O1` (stereo unspecified), the cell number change is 9.22%. Also, the AC50 under setting [2] is 6.51 µM [rising, single point].
Regarding `COCC(C)NC(=O)C1CC(=O)N(c2ccc(C)cc2)C1` (stereo unspecified), the cell number change was -1.09%. Also, under setting [1], the AC50 was 0.82 µM [rising, full curve].
On to `CCS(=O)(=O)c1ccc(C(=O)Nc2ccccc2OC)c(Cl)c1Cl`, for which the cell number change was found to be 4.71%. Also, the AC50 under setting [2] was 0.092 µM [falling, full curve, poor fit].
With `CCOC(=O)c1csc(NC(=O)CC2CCCC2)n1`, the cell number change came to 52.1%. Under setting [1], the AC50 was 7.31 µM [rising, partial curve, poor fit]. In addition, the AC50 under setting [2] is 0.0184 µM [rising, full curve, poor fit].
Regarding `COc1ccc(N(C(=O)c2cnccn2)C(C(=O)NC2CCCCC2)c2ccc(O)cc2)cc1` (stereo unspecified), the cell number change was found to be 11.5%.
The same measure, in the same setting: the same measure for `Cc1ccc(C(=O)NCC(=O)NCCSc2ccc(Br)cc2)cc1`: -10.8%.
For the compound `NC(=O)c1ccc(NC(=O)CCC(=O)N2CCN(S(=O)(=O)c3ccc(Cl)cc3)CC2)cc1`, the cell number change was -17.6%. Besides, the AC50 under setting [2] was 32.6 µM [falling, partial curve].
`CCOC(=O)C1CCCN1C(=O)c1ccc(OC)c(Br)c1` (stereo unspecified): the cell number change was -48%. For the same compound, under setting [1], the AC50 was 4.11 µM [falling, partial curve, poor fit].
On to `O=C(O)/C=C/c1cnc2ccccc2n1`, for which the cell number change is -2.52%. Also, under setting [2], the concentration at half-maximal activity (AC50) is 0.58 µM [falling, single point].
Turning to `O=C(CN1CCCC1)Nc1sc2c(c1C(=O)Nc1ccccc1)CCCC2`, the cell number change came out at 13.9%. Besides, the AC50 under setting [2] is 29.1 µM [rising, single point].
